Results are given in words; binding and its absence hold for the method and conditions named. Some binding calls cover weakened binding; strength is not graded here.
How the values were obtained:
[1] = biological target: biotinylated human 4-1BB (bio.h4-1BB) (human) (UniProt Q07011); experiment: SPR (ProteOn XPR36)
[2] = biological target: human fibroblast activation protein (hFAP) (human) (UniProt Q12884); experiment: SPR (ProteOn XPR36)

By UniProt entry, the sequences of proteins in these tests, tags left out. Where a name states a change or a piece, a line headed by the entry shows the natural chain unless it says otherwise.
UniProt Q07011: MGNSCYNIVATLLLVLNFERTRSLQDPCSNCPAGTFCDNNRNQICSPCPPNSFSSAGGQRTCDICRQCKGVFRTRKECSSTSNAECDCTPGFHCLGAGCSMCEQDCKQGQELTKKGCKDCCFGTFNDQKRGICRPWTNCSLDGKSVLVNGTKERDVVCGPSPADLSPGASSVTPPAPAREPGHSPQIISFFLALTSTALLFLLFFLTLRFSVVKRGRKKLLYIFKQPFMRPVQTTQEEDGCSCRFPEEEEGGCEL
UniProt Q12884: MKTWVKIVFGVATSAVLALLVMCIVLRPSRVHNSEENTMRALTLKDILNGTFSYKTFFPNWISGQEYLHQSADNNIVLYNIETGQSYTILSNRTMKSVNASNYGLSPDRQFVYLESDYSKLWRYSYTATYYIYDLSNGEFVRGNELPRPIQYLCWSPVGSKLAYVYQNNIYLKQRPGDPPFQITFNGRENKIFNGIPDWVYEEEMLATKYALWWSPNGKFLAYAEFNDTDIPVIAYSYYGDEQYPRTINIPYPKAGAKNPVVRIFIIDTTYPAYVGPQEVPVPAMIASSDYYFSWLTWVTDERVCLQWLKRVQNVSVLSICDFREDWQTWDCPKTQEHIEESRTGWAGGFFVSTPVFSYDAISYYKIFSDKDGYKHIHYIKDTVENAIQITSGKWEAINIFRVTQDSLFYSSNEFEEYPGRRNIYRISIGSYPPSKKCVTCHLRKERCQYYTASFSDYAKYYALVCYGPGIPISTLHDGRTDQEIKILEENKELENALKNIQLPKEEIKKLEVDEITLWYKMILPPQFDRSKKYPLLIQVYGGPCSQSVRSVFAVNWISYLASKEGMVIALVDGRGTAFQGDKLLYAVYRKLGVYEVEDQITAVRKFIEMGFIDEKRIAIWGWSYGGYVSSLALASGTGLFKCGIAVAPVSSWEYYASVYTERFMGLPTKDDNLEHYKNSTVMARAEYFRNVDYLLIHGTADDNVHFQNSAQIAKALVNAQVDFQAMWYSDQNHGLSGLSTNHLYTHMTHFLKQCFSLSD

binding [1]: binds | binding [2]: binds
B1: bispecific construct #45 (designed binder)
chain: MRGSHHHHHHGSDLGEKLLVAALYGQDDEVRILLAAGADVNAKDQWGLTPLHKAALQGHLEIVEVLLKAGADVNAKDERGHTPLHWAARFGHLEIVEVLLKAGADVNAQDQKGYTPADLAALWGHEDIAEVLQKAAGSPTPTPTTPTPTPTTPTPTPTGSDLGDKLLHAAYYGQDDEVRILLAAGADVNAKDTQGLTPLHLAAAIGHLEIVEVLLKAGADVNAKDAYGETPLHLVASRGHLEIVEVLLKAGADVNAQDYSGRTPADLAAEYGHEDIAEVLQKLN
